Measured values: the M2OR odorant receptor database
This is a selection; strong and weak results do not stand in their true shares. The calls were merged from several studies; some rest on single wells.

These compounds were tested against T1, OR1A2 (Homo sapiens) (UniProt Q9Y585). Settings: stereoisomer not certain.
T1 sequence (whole entry): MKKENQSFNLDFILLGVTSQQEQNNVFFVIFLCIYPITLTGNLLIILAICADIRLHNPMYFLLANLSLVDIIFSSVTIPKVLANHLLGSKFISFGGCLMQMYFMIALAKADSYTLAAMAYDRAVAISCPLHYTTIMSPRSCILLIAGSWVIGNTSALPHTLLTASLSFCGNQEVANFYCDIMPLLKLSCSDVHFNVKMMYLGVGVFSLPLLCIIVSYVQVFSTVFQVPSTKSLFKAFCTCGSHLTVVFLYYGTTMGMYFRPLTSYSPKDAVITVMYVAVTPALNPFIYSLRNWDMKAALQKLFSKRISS
Procedure, shortened: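 Whether a receptor–molecule pair is responsive (active) rests on the original authors' judgment that its measured signal was statistically different from baseline. Pairs without that judgment are non-responsive (inactive). Sources used varied assay methods, commonly transient luciferase assays in mammalian cell lines.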
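Note: active if original authors judged signal statistically different from baseline.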

How did the “odorant receptor agonist call” value turn out when `CC12C=CCC1C1CCC3=CC(=O)CCC3(C)C1CC2` (stereo not given) was run?
Its value is “inactive”.

With `CC1COCc2cc3c(cc21)C(C)(C)C(C)C3(C)C` (stereo not given) as the compound, how does the “odorant receptor agonist call” value read?
Its value is “inactive”.

How did the “odorant receptor agonist call” value turn out when `COC(=O)c1ccccc1O` was run?
Its value is “inactive”.

`O=C1CCCCCCCCCCCCCCO1` was tested. Which “odorant receptor agonist call” value did it give?
The value was “inactive”.

`CC(=O)OC(C)(C)C1CC=C(C)CC1` (stereo not given) was tested. Which “odorant receptor agonist call” value did it give?
Its value is “inactive”.

Which “odorant receptor agonist call” value does the source give for `COc1cc(C)ccc1O` here?
The value was “inactive”.

How did the “odorant receptor agonist call” value turn out when `CCCCCCOC(=O)CCC` was run?
Its value is “inactive”.

For `C=CCc1ccc(OC)c(OC)c1`, which “odorant receptor agonist call” value is on record?
The value was “inactive”.

Which “odorant receptor agonist call” value does the source give for `O=C1CCCCCCCCCCCC(=O)OCCO1` here?
Its value is “inactive”.

Which “odorant receptor agonist call” value does the source give for `CC(C)CC(=O)O` here?
Its value is “inactive”.

Which “odorant receptor agonist call” value does the source give for `CC(C)CCC(=O)O` here?
Its value is “inactive”.

For `CC12CCC(CC1)C(C)(C)O2`, which “odorant receptor agonist call” value is on record?
The value was “inactive”.

With `CC(C)C=O` as the compound, how does the “odorant receptor agonist call” value read?
The value was “inactive”.

With `CCCCCC(C)=O` as the compound, how does the “odorant receptor agonist call” value read?
Its value is “inactive”.

Which “odorant receptor agonist call” value does the source give for `CCCC(=O)O` here?
The value was “inactive”.

Which “odorant receptor agonist call” value does the source give for `C=CCc1ccc(OC(C)=O)c(OC)c1` here?
The value was “inactive”.

Which “odorant receptor agonist call” value does the source give for `CCCCCCC=O` here?
Its value is “active”.

How did the “odorant receptor agonist call” value turn out when `COc1cc(C=O)ccc1O` was run?
Its value is “inactive”.

`CCCCCCCCC=O` was tested. Which “odorant receptor agonist call” value did it give?
Its value is “active”.

With `CC(=O)C(C)=O` as the compound, how does the “odorant receptor agonist call” value read?
The value was “inactive”.

For `CCC=CCCO`, which “odorant receptor agonist call” value is on record?
The value was “inactive”.

`CC1CCC(C(C)C)C(O)C1` (stereo not given) was tested. Which “odorant receptor agonist call” value did it give?
Its value is “inactive”.

Which “odorant receptor agonist call” value does the source give for `CC12CCC(C1)C(C)(C)C2=O` (stereo not given) here?
The value was “inactive”.

Which “odorant receptor agonist call” value does the source give for `CC(=O)OC1CC2CCC1(C)C2(C)C` (stereo not given) here?
The value was “inactive”.

How did the “odorant receptor agonist call” value turn out when `CC1=CCC(C(C)(C)O)CC1` (stereo not given) was run?
The value was “inactive”.
